US7078491 (Amgen, dated 2006)
Results are given in words; binding and its absence hold for the method and conditions named. Some results given as binding are weak or reduced against the parent protein; the word gives no strength.

By UniProt entry, the sequences of proteins in these tests, tags left out.
UniProt O14746: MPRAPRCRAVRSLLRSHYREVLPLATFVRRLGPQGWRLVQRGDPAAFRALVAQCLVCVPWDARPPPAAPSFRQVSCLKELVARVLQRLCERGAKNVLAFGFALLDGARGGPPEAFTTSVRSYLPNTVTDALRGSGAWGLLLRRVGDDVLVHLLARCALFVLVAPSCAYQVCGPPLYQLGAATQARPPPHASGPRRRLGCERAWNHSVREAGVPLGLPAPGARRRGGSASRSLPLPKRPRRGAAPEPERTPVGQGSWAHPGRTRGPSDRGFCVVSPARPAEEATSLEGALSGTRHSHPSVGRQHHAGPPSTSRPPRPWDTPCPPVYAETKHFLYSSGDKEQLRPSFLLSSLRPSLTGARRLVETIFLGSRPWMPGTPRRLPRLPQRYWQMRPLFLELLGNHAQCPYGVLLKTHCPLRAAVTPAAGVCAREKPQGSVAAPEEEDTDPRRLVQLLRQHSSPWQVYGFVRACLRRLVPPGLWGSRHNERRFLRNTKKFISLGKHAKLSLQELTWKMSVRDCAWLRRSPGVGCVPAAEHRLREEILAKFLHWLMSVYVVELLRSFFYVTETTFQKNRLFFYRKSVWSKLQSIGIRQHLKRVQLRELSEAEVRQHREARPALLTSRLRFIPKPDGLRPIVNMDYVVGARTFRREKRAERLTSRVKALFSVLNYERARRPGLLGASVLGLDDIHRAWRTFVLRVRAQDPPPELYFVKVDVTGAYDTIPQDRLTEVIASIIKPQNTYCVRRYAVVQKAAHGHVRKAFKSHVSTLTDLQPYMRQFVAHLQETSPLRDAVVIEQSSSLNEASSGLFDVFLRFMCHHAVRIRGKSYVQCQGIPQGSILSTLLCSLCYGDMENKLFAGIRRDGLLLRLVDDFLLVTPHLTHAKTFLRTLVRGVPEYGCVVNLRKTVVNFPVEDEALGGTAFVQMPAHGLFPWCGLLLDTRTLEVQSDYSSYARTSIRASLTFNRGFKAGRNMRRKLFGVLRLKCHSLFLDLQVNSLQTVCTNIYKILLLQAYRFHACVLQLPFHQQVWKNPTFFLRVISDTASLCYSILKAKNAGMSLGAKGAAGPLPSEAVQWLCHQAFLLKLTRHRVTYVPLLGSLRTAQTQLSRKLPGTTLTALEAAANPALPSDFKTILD

How the values were obtained:
[1] = biological target: purified recombinant human TERT reverse transcriptase domain (human) (UniProt O14746); assay: Western blot of purified hTERT-RT (100 ng) with hybridoma supernatant
[2] = biological target: catalytic subunit of human telomerase (hTERT) (human) (UniProt O14746); assay: Western blot and immunoprecipitation (summary)
[3] = biological target: flag-tagged hTERT protein from transfected 293T cells (human) (UniProt O14746); assay: immunoprecipitation from 293T lysate, Western blot with peptide polyclonal antibody
[4] = biological target: purified recombinant human TERT reverse transcriptase domain (human) (UniProt O14746); assay: Western blot, 0.2 µg/ml antibody, ECL exposure 1 hour
[5] = biological target: catalytic subunit of human telomerase (hTERT) (human) (UniProt O14746); assay: Western blot

Measured: binding

B1: 4B5 monoclonal antibody (hybridoma 4B5, ATCC PTA-2411) (antibody, V domains shown)
VH: EVKLVESGGGLVKPGGSLKLSCAASGFTFSSYAMSWVRQTPEKRLEWVASISSGGNTYYPDNVQGRFTISRDNARNILYLQMSSLRSEDTAMFYCAREGVYDTYGGVDYWGQGTTLTVSS
VL: DIVLTQSPTSLAVSLGQRATISCKASQSVDYDGDSFINWYQQTPGQPPKLLIYAASNLASGIPARFSGSGSGTDFTLNIHPVEEEDAATYYCQQSNEAPPTFGGGTKLEI
binds: all assays above

B2: 4A5 monoclonal antibody (hybridoma 4A5, ATCC PTA-2412) (antibody, V domains shown)
VH: B1 VH
VL: B1 VL
notes: Mouse monoclonal from hybridoma, characterized as IgG2B type, kappa light chain primers used; also called 4A5 mAb; 45A
not listed: [3]
binds: all other assays above
